Broadly, the cell viability is a read-out of living cells in per cent, often relative to untreated cells.

The campaign covered roughly 3,000 compounds. About 45 (2%) showed an effect of 50% or more. The list shows a part of the results.

This test concerns MOLM1 and UCSD/AML1 (averaged). Briefly: cell viability relative to DMSO control (POC); higher = less growth inhibition. Conditions: 1 µM; 72 h. As to the method:
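Primary viability screen in the 3q26 EVI1-high AML cell lines MOLM1 and UCSD/AML1, compounds at 1 uM for 72 h. ATP CellTiter-Glo read-out given as percent viable over DMSO control (POC), averaged over duplicates. This mapping covers the TimTec NDL-3000 natural derivative library, whose compounds are identified by TimTec catalogue codes (ST...).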
For `CCC(C)OC(=O)C1=C(C)NC2=C(C(=O)CC(c3ccc(Cl)cc3)C2)C1c1cc(OC)c(OC)c(OC)c1` (centres undefined), the cell viability worked out at 85.8%.

`COc1ccc(OC)c(NC(=O)Cn2c(=O)cc(C(=O)N3CCCCC3)c3ccccc32)c1`: the cell viability stood at 94.7%.

In the case of `COc1cc(/C=N\Nc2nc(-c3ccc(Br)cc3)cs2)cc(OC)c1OC`, the cell viability was determined as 100%.

Regarding `COc1ccc(NC(=O)Cc2ccccc2OC)c(OC)c1`, the cell viability was 88.7%.

As to `Cc1ccc2c(c1)N(C(=O)CSc1nc3ccccc3c(=O)[nH]1)CCO2`, the cell viability was 73.8%.

For the compound `Cc1ccc(NC(=O)CSc2nc3c(=O)[nH]cnc3n2C)cc1C`, the cell viability was found to be 94.8%.

`CN1CCN(Cc2c(O)ccc3cc(-c4nc5ccccc5s4)c(=O)oc23)CC1`: the cell viability is 101%.

With `COC(=O)c1cc(OC)c(OC)c(OC)c1NS(=O)(=O)c1cc2c(cc1C)n(C)c(=O)n2C`, the cell viability amounted to 108%.

`Cc1cc2c(C(C)C)c(O)c(O)c(C=NCCOc3ccc4c(c3)CCC4)c2c(O)c1-c1c(C)cc2c(C(C)C)c(O)c(O)c(C=NCCOc3ccc4c(c3)CCC4)c2c1O`: the cell viability stood at 102%.

For `CCOC(=O)c1cc2cc(Br)ccc2oc1=O`, the cell viability amounted to 108%.

As to `CC1(C)CC(=O)C2=C(C1)Nc1ccccc1N(C(=O)c1ccccc1)C2c1ccc(Cl)cc1Cl` (centres undefined), the cell viability came out at 113%.

As for `COc1ccc(C(=O)CSc2nnc(-c3ccc(OC)c(OC)c3)o2)cc1OC`, the cell viability came to 96.6%.

`O=C(CCNc1cccc(Cl)c1)c1cc2ccccc2oc1=O`: the cell viability was 115%.

Regarding `CCOC(=O)Nc1ccc2c(c1)N(C(=O)CCN1CCOCC1)c1ccccc1S2`, the cell viability was determined as 92.3%.

For `C=CCOc1cc(=O)oc2cc3occc3cc12`, the cell viability turned out to be 98.9%.

Regarding `O=c1cc(O)c2cc(Cl)cc(Cl)c2o1`, the cell viability came out at 108%.

With `O=C([O-])[C@H](O)[C@H](O)[C@@H](O)[C@H](O)[C@H](O)CO.O=C([O-])[C@H](O)[C@H](O)[C@@H](O)[C@H](O)[C@H](O)CO.[Ca+2]`, the cell viability came to 96.3%.

On to `Cc1cc(C)c2c(CN3CCN(c4ccccn4)CC3)cc(=O)oc2c1`, for which the cell viability was determined as 97.6%.

`N#CC1=C(N)Oc2cc(O)ccc2C1c1ccccc1` (centres undefined): the cell viability is 104%.

As to `COCCOC(=O)C1=C(C)NC2=C(C(=O)CCC2)C1c1cc(Cl)c(O)c(OC)c1` (centres undefined), the cell viability was 108%.

In the case of `N#CC1=C(N)Oc2n[nH]c(-c3ccc(F)cc3)c2C1c1ccc(O)cc1` (centres undefined), the cell viability amounted to 99.7%.

`NC(Cc1ccc([N+](=O)[O-])cc1)C(=O)O` (centres undefined): the cell viability is 108%.

Consider `COc1ccc2[nH]c3c(c2c1)CCNC3c1cccc(F)c1` (centres undefined), for which the cell viability turned out to be 80.9%.

As for `COc1cc2c(cc1OC)C(CCCO)NCC2` (centres undefined), the cell viability came out at 97.6%.

As to `O=C(c1cc(-c2ccc(Cl)c(Cl)c2)nc2ccccc12)N1CCc2ccccc2C1`, the cell viability amounted to 104%.

`CNc1nc(C(N)=O)c(NC(=O)c2ccc3c(c2)OCO3)s1`: the cell viability came out at 95.1%.

Regarding `COc1ccc(C=O)cc1CSc1nc2c(=O)[nH]cnc2n1C`, the cell viability worked out at 95.8%.

On to `CCC(Sc1nc2c(=O)[nH]cnc2n1C)C(=O)Nc1ccc(OC)c(Cl)c1` (centres undefined), for which the cell viability is 101%.

Consider `CCN(CC)C(=O)c1cc(=O)n(CC(=O)Nc2ccccc2Cl)c2ccccc12`, for which the cell viability was 103%.

Consider `COc1cc(C(=O)NC(Cc2ccccc2)C(=O)O)cc(OC)c1OC` (centres undefined), for which the cell viability amounted to 101%.

In the case of `O=C1C2CC=CCC2C(=O)N1Cc1cc(=O)[nH]c2ccccc12` (centres undefined), the cell viability is 102%.

In the case of `Cc1ccccc1C(=O)OCC1CCCN2CCCCC12.O.O.O.O.O.O.O=[N+]([O-])O.O=[N+]([O-])O.[Co]` (centres undefined), the cell viability was 104%.

Consider `CCOc1ccc2[nH]c(=O)c(C(c3nnnn3C(C)(C)C)N3CCN(Cc4ccccc4)CC3)cc2c1` (centres undefined), for which the cell viability was 95%.

Consider `CCOc1cc2c(cc1OCC)C(c1cccc(F)c1F)NCC2` (centres undefined), for which the cell viability came to 86.1%.

As for `CCOC(=O)CC(=O)c1cc(OC)c(OC)c(OC)c1`, the cell viability worked out at 94.4%.

For `CCCCCOC(=O)C1=C(C)N(C)C(=O)NC1c1cc(Cl)c(O)c(OC)c1` (centres undefined), the cell viability is 94.5%.

With `O=c1cc(-c2ccccc2Cl)oc2c(Br)cc(Cl)cc12`, the cell viability stood at 112%.

Turning to `Cc1nc2c(nc(SCc3nc(-c4ccc(Cl)cc4)oc3C)n2C)c(=O)[nH]1`, the cell viability was 102%.

Regarding `CCOc1c(C=O)cccc1OC`, the cell viability turned out to be 104%.

With `COc1ccc(-c2nc(CSc3nc4c(=O)[nH]cnc4n3C)c(C)o2)cc1`, the cell viability came out at 98.5%.

On to `COc1ccc(C(=O)Nc2ccc(CC#N)cc2)cc1OC`, for which the cell viability came to 102%.

Consider `COC(=O)c1ccc(/C=N/NC(=O)c2ccc(CN3CCc4ccccc4C3)cc2)cc1`, for which the cell viability is 95.6%.

Take `COc1cccc(NC(=O)c2ccc(CN3CCc4ccccc4C3)cc2)c1`: the cell viability was determined as 93.7%.

Take `C=CC(C)(O)CCC=C(C)CCC=C(C)C` (mixture of isomers): the cell viability is 86.4%.

As for `CC1(C)CC(=O)C2=C(C1)NC1=C(C(=O)CC(C)(C)C1)C2c1ccccc1OCc1ccccc1Cl`, the cell viability is 106%.

For the compound `COc1ccc(-c2nc(CSc3nc4c(=O)[nH]c(C)nc4n3C)c(C)o2)cc1OC`, the cell viability was found to be 109%.

Consider `COc1cccc2oc(-c3ccccc3)c(O)c(=O)c12`, for which the cell viability turned out to be 90.3%.

With `Nc1[nH]c(=O)ncc1CO`, the cell viability is 100%.

As for `Cc1c(-c2ccc(Br)cc2)c(=O)oc2ccccc12`, the cell viability is 92%.

Consider `Cc1ccc(C)c(C2C(C#N)=C(N)Oc3c2oc(CO)cc3=O)c1` (centres undefined), for which the cell viability was 108%.

Consider `COc1ccc(C(=O)NCN2CCN(c3ccccc3)CC2)cc1OC`, for which the cell viability is 102%.

As for `O=C(c1nn2c(C(F)(F)F)cc(-c3ccccc3)nc2c1Br)N1CCc2ccccc2C1`, the cell viability was 101%.

For `COc1ccc(/C=C2\Oc3ccc(Br)cc3C2=O)cc1`, the cell viability worked out at 97.7%.

In the case of `COc1ccc(NC(=O)CSc2nc3c(=O)[nH]cnc3n2C)c(OC)c1`, the cell viability was found to be 85.2%.

For the compound `COc1ccc(Br)cc1-c1nc(CSc2nc3c(=O)[nH]cnc3n2C)c(C)o1`, the cell viability was 117%.

As to `Cc1ccc2[nH]c3c(c2c1)CCCC3=O`, the cell viability amounted to 84.8%.

As to `Cc1cccc(C)c1NC(=O)Cn1c(=O)cc(C(=O)N2CCc3ccccc3C2)c2ccccc21`, the cell viability is 97.3%.

In the case of `CCOc1ccc2oc(=O)cc(CN3CCN(C(=O)c4c(F)cccc4F)CC3)c2c1`, the cell viability is 94.6%.

In the case of `COC(=O)c1cn(C(=O)c2ccc3c(c2)OCO3)c2ccccc12`, the cell viability turned out to be 100%.

On to `Cc1[nH]c2ccc(OC(F)(F)F)cc2c1CCNC(=O)c1cc2ccccc2oc1=O`, for which the cell viability was determined as 96.8%.

On to `CCOC(=O)C1=C(c2ccccc2)NC(=S)NC1c1ccc(O)c(OC)c1` (centres undefined), for which the cell viability is 97%.

Consider `O=C(Oc1ccc2c3c(c(=O)oc2c1)CCC3)c1ccccc1`, for which the cell viability turned out to be 105%.

`COc1cc2ccccc2cc1C(=O)Nc1ccc(CN2CCOCC2)cc1`: the cell viability amounted to 90.7%.

With `COc1cc(C(=O)Nc2ccc(C(=O)NCc3ccccc3)cc2)cc(OC)c1OC`, the cell viability was 87%.

For `CC1(C)CC(=O)C2=C(C1)Nc1ccccc1NC2c1ccc(OCc2ccccc2F)c(Cl)c1` (centres undefined), the cell viability is 104%.

Turning to `Cc1cc(C)c2c(O)c(Cc3ccccc3)c(=O)[nH]c2c1`, the cell viability stood at 110%.

Turning to `COC(=O)C1=CN(Cc2ccc(Cl)cc2)C=C(C(=O)OC)C1c1cc(OC)c(OC)c(OC)c1`, the cell viability was 91%.

For the compound `Cc1ccc(-c2nc(CSc3nc4c(=O)[nH]cnc4n3-c3ccc(C)cc3)c(C)o2)cc1`, the cell viability was found to be 94.7%.

As for `Cc1cccc(Cn2c(SCCO)nc3c2c(=O)[nH]c(=O)n3C)c1`, the cell viability worked out at 98.6%.

Consider `O=C(NCCNC(=O)c1ccc(CN2CCc3ccccc3C2)cc1)c1ccc(CN2CCc3ccccc3C2)cc1`, for which the cell viability worked out at 97.7%.

For `COc1ccc(C(OCC2OC(n3cnc4c(N)ncnc43)CC2O)(c2ccccc2)c2ccc(OC)cc2)cc1` (centres undefined), the cell viability is 69.6%.

Take `O=C(Cn1c(=O)cc(C(=O)N2CCCC2)c2ccccc21)Nc1ccc(F)cc1`: the cell viability turned out to be 106%.

As to `COc1cc(C(=O)CCNc2cccc(F)c2)cc(OC)c1OC`, the cell viability is 101%.

Turning to `CCCNC(=O)c1cc(=O)n(CC(=O)Nc2cc(Cl)ccc2C)c2ccccc12`, the cell viability is 85.2%.

`O=C(NC(Cc1c[nH]c2ccccc12)C(=O)Oc1ccc2c(=O)c(Oc3ccc(Cl)cc3)c(C(F)(F)F)oc2c1)OCc1ccccc1` (centres undefined): the cell viability was found to be 79.8%.

Turning to `Cc1ccc(-n2c(SCC(=O)Nc3cc(Cl)ccc3C)nc3c(=O)[nH]cnc32)cc1`, the cell viability was determined as 102%.

Consider `COc1cc(CNC(=O)c2ccc(C(=O)c3ccccc3)cc2)cc(OC)c1OC`, for which the cell viability turned out to be 99.1%.

For `CCOC(=O)C(=O)Nc1ccccc1C(=O)OCC`, the cell viability is 94.1%.

In the case of `COC(=O)C1=C(C)NC2=C(C(=O)CC(c3ccc(Cl)cc3)C2)C1c1cc(OC)c(OC)c(OC)c1` (centres undefined), the cell viability was found to be 99.1%.

Turning to `Clc1ccc(-c2nc(Nc3ccc4c(c3)OCCO4)c3ccccc3n2)cc1`, the cell viability turned out to be 91.5%.

With `COC(=O)/C=C/c1cc(S(=O)(=O)NC2CC2)ccc1OC`, the cell viability was 116%.

Consider `CCN(CC)c1ccc2cc(-c3ccccc3)c(=O)oc2c1`, for which the cell viability is 96.9%.

With `COC(=O)c1ccc(NC(=S)N/N=C/c2cc(OC)c(OC)c(OC)c2)cc1`, the cell viability was found to be 95.4%.

For `COc1cc(C(=O)Nc2ccccc2C#N)cc(OC)c1OC`, the cell viability is 109%.

In the case of `COc1ccc(C(=O)Nc2cc(Cl)cc(Cl)c2)cc1OC`, the cell viability came to 94.7%.

As to `COc1cc(-c2nnc(CSc3nc4ccccc4c(=O)n3Cc3ccccc3)o2)cc(OC)c1OC`, the cell viability worked out at 97.7%.

Take `CC1(C)CC(=O)C2=C(C1)Nc1ccccc1NC2c1cccc(OCc2cccc(F)c2)c1` (centres undefined): the cell viability came to 105%.

`Cc1ccc(-n2c(SCC(=O)Nc3ccccc3C(F)(F)F)nc3c(=O)[nH]cnc32)cc1`: the cell viability is 108%.

Regarding `CCCNC(=O)c1cc(=O)n(CC(=O)Nc2cccc(F)c2)c2ccccc12`, the cell viability was 82.5%.

In the case of `Cc1ccc(-c2nc(CSc3nc4c(=O)[nH]cnc4n3C)c(C)o2)cc1`, the cell viability came to 94.6%.

`COc1cc(CNc2ccc([N+](=O)[O-])cn2)cc(OC)c1OC`: the cell viability amounted to 108%.

As to `CC[N+]12CCCC34CCC5(C(C(=O)OC)C3)N(C(C)=O)c3ccccc3C5(CC1)C42` (centres undefined), the cell viability stood at 100%.

On to `COCCNC(=O)Cc1c(C)n(C(=O)c2ccc(Cl)cc2)c2ccc(OC)cc12`, for which the cell viability is 84.8%.

On to `COc1cc(C2Nc3ccccc3NC3=C2C(=O)CC(C)(C)C3)ccc1OCc1cccc2ccccc12` (centres undefined), for which the cell viability is 109%.

Take `Cc1ccc2c(N)c(C(=O)N3CCC[C@H]3C(=O)O)sc2n1`: the cell viability stood at 95.3%.

As to `COc1cc(C(=O)N2c3ccccc3CC2C)cc(OC)c1OC` (centres undefined), the cell viability was found to be 91.9%.

On to `CCOC(=O)C1=C(N)Oc2c(oc(CO)cc2=O)C1c1cc(Cl)ccc1Cl` (centres undefined), for which the cell viability came to 95.1%.

Regarding `CCN(CC)Cc1nnn(-c2nonc2N)c1C(=O)N/N=C/c1cc(OC)c(OC)c(OC)c1`, the cell viability turned out to be 102%.

Take `CC1(C)CC(=O)C2=C(C1)Nc1ccccc1NC2c1ccc(OCc2ccc(Br)cc2)cc1` (centres undefined): the cell viability stood at 108%.

For the origin of these results see the supplement of paper PMC11150407.
